# Where a chain is given by its changes, count along the chain named. No constants are given. Whether binding was seen depends on the method and setting. Some results given as binding are weak or reduced against the parent protein; the word gives no strength. For part of these data: Sequences can lack the tags named with a protein.
# Sequences of proteins named here, by UniProt entry; tags and fusion partners are left off. A change or cut given only in a name is not applied to a line headed by its entry. A line that says so, or that is headed by a name, gives the form on record, which may keep a tag or linker.
# 6×His tagged human SIRPα v1 ECD recombinant protein (P78324, form named): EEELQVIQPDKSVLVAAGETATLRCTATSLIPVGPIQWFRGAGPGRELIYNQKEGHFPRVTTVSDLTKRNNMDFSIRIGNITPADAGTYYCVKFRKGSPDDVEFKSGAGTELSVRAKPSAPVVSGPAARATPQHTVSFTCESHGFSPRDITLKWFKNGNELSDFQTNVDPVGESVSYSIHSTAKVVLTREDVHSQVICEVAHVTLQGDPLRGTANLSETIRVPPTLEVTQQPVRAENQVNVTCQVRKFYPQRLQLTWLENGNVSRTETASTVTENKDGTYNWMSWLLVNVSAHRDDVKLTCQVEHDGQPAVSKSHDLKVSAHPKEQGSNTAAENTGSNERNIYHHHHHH
# T1: 6×His tagged C57BL/6 mouse SIRPα ECD recombinant protein (mouse (C57BL/6)) (UniProt P97797)
# T1 sequence: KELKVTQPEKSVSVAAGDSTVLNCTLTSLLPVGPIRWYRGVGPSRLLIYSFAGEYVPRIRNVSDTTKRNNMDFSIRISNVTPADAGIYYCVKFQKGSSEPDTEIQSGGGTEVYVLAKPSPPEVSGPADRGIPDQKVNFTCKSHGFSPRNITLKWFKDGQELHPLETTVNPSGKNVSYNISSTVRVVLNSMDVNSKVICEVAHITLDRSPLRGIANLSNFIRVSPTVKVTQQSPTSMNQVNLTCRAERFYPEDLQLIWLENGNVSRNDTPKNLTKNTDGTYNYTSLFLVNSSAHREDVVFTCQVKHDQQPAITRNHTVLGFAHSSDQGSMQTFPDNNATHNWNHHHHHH
# B1: humanized antibody hu035.03 (antibody, V domains shown)
# VH: QIQLVQSGSELKKPGASVKVSCRARGYTLTDYAMNWVRQAPGQGLEWMGFINTYTGEPTYAQGFKGRFVFSLDTSVSTAYLQIGSLKAEDTAVYYCARTRGYYDFDGGAFDYWGQGTLVTVSS
# VL: DIQMTQSPSSLSASVGDRVTITCRASQNVGTHLAWYQQKPGKSPKALIFSASYRYIGVPSRFSGSGSGTDFTLTISSLQPEDFATYYCQQYNTYPLTFGQGTKLEIK
# B2: humanized antibody hu035.09 (antibody, V domains shown)
# VH: B1 VH with R25G
# VL: B1 VL with S43A, A46S, F49Y, S52I
# B3: humanized antibody hu035.14 (antibody, V domains shown)
# VH: B1 VH with R23K, R25S, T28S, L29I, G84S
# VL: B1 VL with S52I, S77N
# B4: humanized antibody hu035.02 (antibody, V domains shown)
# VH: B1 VH
# VL: B1 VL with S43A, A46S, F49Y
# B5: humanized antibody hu035.17 (antibody, V domains shown)
# VH: B1 VH
# VL: DIQMTQSPSSLSASVGDRVTITCRASQNVGTHLAWYQQKPGKAPKSLIYSAIYRYIGVPSRFSGSGSGTDFTLTISSLQPEDFATYFCQQYNTYPLTFDQGTKLEIKR
# B6: humanized antibody hu035.13 (antibody, V domains shown)
# VH: B1 VH with R23K, R25S, T28S, L29I, D31N, G84S
# VL: B5 VL with S10R, S12G
# B7: humanized antibody hu035.10 (antibody, V domains shown)
# VH: B1 VH
# VL: B1 VL with S52I, S77N
# B8: chimeric antibody 035c (antibody, V domains shown)
# VH: QIQLVQSGPELRKPGETVKISCKASGYSFTNYAMNWVKQAPGKVLKWMGFINTYTGEPTYADDFKGRFAFSLETSASTAYLQINNLKNEDTATYFCTRTRGYYDFDGGAFDYWGQGTSLTVSS
# VL: DIVMTQSQKFMSTSIGDRVSVTCKASQNVGTHLAWYQQKPGQSPKALIFSASYRYIGVPDRFTGSGSGTDFTLTITNVQSEDLAEYFCQQYNTYPLTFGAGTKLELK
# B9: chimeric antibody 055c (antibody, V domains shown)
# VH: EVKLVESEGGLVQPGDSMKLSCTASGFTFSDYFMTWIRQVPEKGLEWIANVNYDGRSTYYLDSLKSRFIISRDNANNILYLQMSSLKSEDTATYYCAREGSQTPLYAVDYWGQGTSVTVSS
# VL: DIVMTQSQKFMSTTVGDRVNITCKASQNVGTAVAWYQQKPGQSPKLLIYLASNRYTGVPDRFTGSGSGTDFTLTVSDMRSEDLADYFCQQYSIYPFTFGSGTKLEIK
# B10: chimeric antibody 001c (antibody, V domains shown)
# VH: EVKLEESGGGLVQPGGSMKLSCVASGFTFRNYWMNWVRQSPERGLEWIAEISLKSNTYATHYAESVKGRFAISRDGSKSSFYLQMNDLRAEDTGIYYCTTFTKVVADWHLDVWGAGTTVTVSS
# VL: DVLMTQTPLSLPVSLGDQASISCRSSQNIVHSNGNTYLEWYLQKPGQSPKLLIYKVSNRFSGVPDRFSGSGSGTDFTLRISRVEAEDLGVYYCFQGSHVPFTFGSGTKLEIK
# B11: chimeric antibody 002c (antibody, V domains shown)
# VH: B10 VH with K19I, S52T, G76D, A90P
# VL: B10 VL with V56I, K112Q
# B12: chimeric antibody 032c (antibody, V domains shown)
# VH: B10 VH with K3R, A24V, S52T, G76D, A90P
# VL: B10 VL with S14N
# B13: chimeric antibody 050c (antibody, V domains shown)
# VH: QIQLVQSGPELKKPGETVKISCKASGYTFTHYSMHWVKQAPGKGLKWMGWINTETAEPTYVDDFKGRFAFSLEASASTAFFQINNLKNEDTATYFCARGGLRQGDYWGQGTTLTVSS
# VL: QIVLTQSPPIMSASPGEKVTLTCSATSSVSASYLYWFQQKPGSSPKLWIYSTSNLASGVPARFSGSGSGTSYSLTISNMEPADAASYFCHQWSSYPYTFGGGTKLEIK
# B14: chimeric antibody 022c (antibody, V domains shown)
# VH: QIQLVQSGPELKKPGETVKISCKASGYTFTDYAMHWVKQAPGKGLKWMGWKNTETGESTYAEDFKGRFAFFLETSASTAYLQINNVKNEDTATYFCARGGYGSNYVMDYWGQGTSVIVSS
# VL: DIQMTQSSSSFSVSLGDRVTITCKASEDIYNRLAWYQQKPGNAPRLLISGATSLETGVPSRFSGSGSGKDYTLSITSLQTEDVATYYCQQYWNSPRTFGGGTKLEIK
# Biological target: full length cyno SIRPα stably expressed on CHOK1 cells (cynomolgus monkey)
# Assay: FACS
row,binding,Binder
1,binds,B1
2,binds,B2
3,binds,B3
4,binds,B4
5,binds,B5
6,binds,B6
7,binds,B7

# Biological target: T2, chimeric SIRPα of B-hSIRPA mice (IgV domain of human SIRPα; IgC1/C2, transmembrane and intracellular domains of mouse SIRPα) on primary monocytes (human; mouse) (UniProt P78324+P97797)
# Assay: FACS
row,binding,Binder
1,binds,B8

# Biological target: T1, 6×His tagged C57BL/6 mouse SIRPα ECD recombinant protein (mouse (C57BL/6))
# Assay: ELISA
row,binding,Binder
1,binds,B1
2,binds,B2
3,binds,B3
4,binds,B4
5,binds,B5
6,binds,B6
7,binds,B7

# Biological target: full length cyno SIRPα stably expressed on CHOK1 cells (cynomolgus monkey)
# Assay: FACS, 10 nM
row,binding,Binder
1,binds,B8
2,binds,B9
3,binds,B10
4,binds,B11
5,binds,B12
6,binds,B13
7,binds,B14

# Biological target: T1, 6×His tagged C57BL/6 mouse SIRPα ECD recombinant protein (mouse (C57BL/6))
# Assay: ELISA on coated mouse SIRPα (C57BL/6) ECD [Continued) F]
row,binding,Binder
1,binds,B1
2,binds,B2
3,binds,B3
4,binds,B4
5,binds,B5
6,binds,B6
7,binds,B7
8,binds,B8

# Biological target: T1, 6×His tagged C57BL/6 mouse SIRPα ECD recombinant protein (mouse (C57BL/6))
# Assay: SPR
row,binding,Binder
1,binds,B5
2,binds,B6
3,binds,B7

# Biological target: 6×His tagged human SIRPα v1 ECD recombinant protein (human) (UniProt P78324)
# Assay: SPR
row,binding,Binder
1,binds,B1
2,binds,B2
3,binds,B3
4,binds,B4
5,binds,B5
6,binds,B6
7,binds,B7

# Biological target: T2, chimeric SIRPα of B-hSIRPA mice (IgV domain of human SIRPα; IgC1/C2, transmembrane and intracellular domains of mouse SIRPα) on primary monocytes (human; mouse)
# Assay: FACS on B-hSIRPA mouse monocytes (IgV)
row,binding,Binder
1,binds,B8

# Biological target: T1, 6×His tagged C57BL/6 mouse SIRPα ECD recombinant protein (mouse (C57BL/6))
# Assay: ELISA on coated mouse SIRPα (C57BL/6) ECD, antibody at 10, 1 and 0.1 ug/ml [right panel mSIRPα ECD (C57BL/6]
row,binding,Binder
1,binds,B8

# Reference: US20210347908A1
